Laboratory results published in the supplement of paper PMC4807443.
Structures can show the parent of a compound that is named as a salt. The list shows a part of the results. The numbers are fractions of the control, whatever unit the source prints. Most entries show no effect beyond the scatter of the controls.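 MIN6 is a mouse insulinoma beta-cell line that stably carries a lentiviral reporter in which the Pdx1 and Ins1 promoters each drive a nucleus-targeted fluorescent protein; cells were counted by automated imaging with a Hoechst nuclear stain. In the screen, a drug was a possible hit when its Ins1 promoter readout lay beyond two median absolute deviations from the DMSO controls while Pdx1 activity stayed near normal.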

What follows are compounds tested on MIN6 (assay: % Pdx1+ Ins1-low (RFP-only, immature) cells relative to DMSO control (fold of DMSO control); higher = more immature Pdx1+/Ins1-low cells). Conditions: 8.5 µM; 48 h; glucose 5 mM.

| Structure (SMILES) | % Pdx1+ Ins1-low |
| --- | --- |
| c1cnc(N2CCN(Cc3ccc4c(c3)OCO4)CC2)nc1 [Piribedil hydrochloride] | 1.35 |
| C[C@](N)(Cc1ccc(O)c(O)c1)C(=O)O [Methyldopa (L,-)] | 1.05 |
| CCCC1C(=O)N2C(N(C)C)=Nc3ccc(C)cc3N2C1=O (configuration not stated) [Azapropazone] | 0.706 |
| C[C@H]1c2cccc(O)c2C(=O)C2=C(O)[C@]3(O)C(=O)C(C(N)=O)=C(O)[C@@H](N(C)C)[C@@H]3[C@@H](O)[C@@H]21 [Doxycycline hydrochloride] | 0.73 |
| C1COC(NC(C2CC2)C2CC2)=N1 [Rilmenidine hemifumarate] | 0.8 |
| O=C(O)c1cn(C2CC2)c2cc(N3CCNCC3)c(F)cc2c1=O [Ciprofloxacin hydrochloride] | 0.717 |
| CC(=O)[C@@]1(O)CC[C@H]2[C@@H]3C[C@H](C)C4=CC(=O)C=C[C@]4(C)[C@@]3(F)[C@@H](O)C[C@@]21C [Fluorometholone] | 1.03 |
| CCc1nc(N)nc(N)c1-c1ccc(Cl)cc1 [Pyrimethamine] | 1 |
| CC(C)NCC(O)COc1ccc(CCOCC2CC2)cc1 (configuration not stated) [Betaxolol hydrochloride] | 0.713 |
| C1CCC(C(CC2CCCCN2)C2CCCCC2)CC1 (configuration not stated) [Perhexiline maleate] | 1.23 |
| COc1cc(C(=O)NCc2ccc(OCCN(C)C)cc2)cc(OC)c1OC [Trimethobenzamide hydrochloride] | 1.04 |
| Cc1ccc2c(c1)c1c3n2CCNC3CCC1 (configuration not stated) [Pirlindole mesylate] | 0.523 |
| O=C(N[C@H](CO)[C@H](O)c1ccc([N+](=O)[O-])cc1)C(Cl)Cl [Chloramphenicol] | 1.76 |
| CCC[C@@H]1C[C@@H](C(=O)N[C@@H]([C@H]2O[C@H](SC)[C@H](O)[C@@H](O)[C@H]2O)[C@H](C)Cl)N(C)C1 [Clindamycin hydrochloride] | 0.546 |
| Cn1cnc2c1c(=O)[nH]c(=O)n2C [Theobromine] | 1.03 |
| CC(C)(CO)C(O)C(=O)NCCCO (configuration not stated) [Panthenol (D)] | 1.07 |
| CN(C)C/C=C(/c1ccc(Br)cc1)c1cccnc1 [Zimelidine dihydrochloride monohydrate] | 0.76 |
| CCOc1ccc2ccccc2c1C(=O)N[C@@H]1C(=O)N2[C@@H]1SC(C)(C)[C@@H]2C(=O)O [Nafcillin sodium salt monohydrate] | 1.01 |
| CCN(CC)CCNC(=O)c1cc(Cl)c(N)cc1OC [Metoclopramide monohydrochloride] | 0.97 |
| Nc1ccccc1S(N)(=O)=O [2-Aminobenzenesulfonamide] | 0.622 |
| CC(C)[N+](C)(CCOC(=O)C1c2ccccc2Oc2ccccc21)C(C)C [Propantheline bromide] | 0.633 |
| CN(C)CCC=C1c2ccccc2COc2ccccc21 [Doxepin hydrochloride] | 1.26 |
| N[C@@H](C(=O)N[C@@H]1C(=O)N2C(C(=O)O)=C(Cl)CC[C@H]12)c1ccccc1 [Loracarbef] | 0.672 |

| Structure (SMILES) | % Pdx1+ Ins1-low |
| --- | --- |
| Cc1onc(-c2ccccc2Cl)c1C(=O)N[C@@H]1C(=O)N2[C@@H]1SC(C)(C)[C@@H]2C(=O)O [Cloxacillin sodium salt] | 1.18 |
| CN[C@@H]1[C@H](O)[C@H](NC)[C@H]2O[C@@]3(O)C(=O)C[C@@H](C)O[C@H]3O[C@@H]2[C@H]1O [Spectinomycin dihydrochloride] | 1.04 |
| NS(=O)(=O)c1cc2c(cc1Cl)NC(C(Cl)Cl)NS2(=O)=O (configuration not stated) [Trichlormethiazide] | 0.935 |
| Cc1c(-c2ccccc2)oc2c(C(=O)OCCN3CCCCC3)cccc2c1=O [Flavoxate hydrochloride] | 0.902 |
| CN[C@@H]1[C@@H](O[C@H]2O[C@H](CO)[C@@H](N)[C@H](O)[C@H]2O)OC2C[C@@H](N)[C@@H](O[C@H]3[C@H](O)[C@@H](O)[C@H](N)C[C@@H]3N)OC2[C@@H]1O (some centres not stated) [Apramycin] | 0.942 |
| CN(C)C(=O)C(CCN1CCC(O)(c2ccc(Cl)cc2)CC1)(c1ccccc1)c1ccccc1 [Loperamide hydrochloride] | 1.29 |
| Cc1cccc(C)c1NC(=O)C(C)N (configuration not stated) [Tocainide hydrochloride] | 1.14 |
| CCCCc1cc2ccccc2c(OCCN(C)C)n1 [Dimethisoquin hydrochloride] | 1.16 |
| COc1cc([S+](C)[O-])ccc1-c1nc2cccnc2[nH]1 (configuration not stated) [Sulmazole] | 0.969 |
| C[C@H]1O[C@@H](O[C@H]2[C@@H](O)C[C@H](O[C@H]3[C@@H](O)C[C@H](O[C@H]4CC[C@@]5(C)[C@H](CC[C@@H]6[C@@H]5C[C@@H](O)[C@]5(C)[C@@H](C7=CC(=O)OC7)CC[C@]65O)C4)O[C@@H]3C)O[C@@H]2C)C[C@H](O)[C@@H]1O [Digoxin] | 0.943 |
| CC(C(=O)O)c1ccc(-c2ccccc2)c(F)c1 (configuration not stated) [Flurbiprofen] | 0.827 |
| O=C(OCC(O)CO)c1ccccc1Nc1ccnc2cc(Cl)ccc12 (configuration not stated) [Glafenine hydrochloride] | 0.884 |
| O=c1ccc2cc(O)c(O)cc2o1 [Esculetin] | 0.644 |
| Cc1cccc(C)c1OCC(C)N (configuration not stated) [Mexiletine hydrochloride] | 1.28 |
| CC(=O)[C@H]1CC[C@H]2[C@@H]3C=CC4=CC(=O)CC[C@@]4(C)[C@@H]3CC[C@]12C [Dydrogesterone] | 0.585 |
| COc1ccccc1OCC(O)CO (configuration not stated) [Guaifenesin] | 0.75 |
| NC[C@@H]1O[C@H](O[C@H]2[C@@H](O)[C@H](O[C@@H]3[C@@H](O)[C@H](N)C[C@H](N)[C@H]3O[C@H]3O[C@H](CO)[C@@H](O)[C@H](O)[C@H]3N)O[C@@H]2CO)[C@H](N)[C@@H](O)[C@@H]1O [Paromomycin sulfate] | 1.08 |
| Cc1c(N(C)C)c(=O)n(-c2ccccc2)n1C [Amidopyrine] | 1.27 |
| Oc1ccc(/C=C/c2cc(O)cc(O)c2)cc1 [Resveratrol] | 0.912 |
| COc1ccc(OC)c(C(O)CNC(=O)CN)c1 (configuration not stated) [Midodrine hydrochloride] | 0.677 |
| CN1CCN(CCCN2c3ccccc3Sc3ccc(C(F)(F)F)cc32)CC1 [Trifluoperazine dihydrochloride] | 1.01 |
| CC[C@H](C)[C@H](N)C1=N[C@H](C(=O)N[C@@H](CC(C)C)C(=O)N[C@H](CCC(=O)O)C(=O)N[C@H](C(=O)N[C@H]2CCCCNC(=O)[C@H](CC(N)=O)NC(=O)[C@@H](CC(=O)O)NC(=O)[C@H](Cc3cnc[nH]3)NC(=O)[C@@H](Cc3ccccc3)NC(=O)[C@H]([C@@H](C)CC)NC(=O)[C@@H](CCCN)NC2=O)[C@@H](C)CC)CS1 [Bacitracin] | 0.814 |
| Oc1c(I)cc(Cl)c2cccnc12 [Clioquinol] | 0.924 |

| Structure (SMILES) | % Pdx1+ Ins1-low |
| --- | --- |
| CC(=O)c1ccc2c(c1)N(CCCN(C)C)c1ccccc1S2 [Acetopromazine maleate salt] | 1.07 |
| CN(C)CCOC(C)(c1ccccc1)c1ccccn1 (configuration not stated) [Doxylamine succinate] | 0.838 |
| Nc1ccn([C@H]2CC[C@@H](CO)O2)c(=O)n1 [Zalcitabine] | 0.448 |
| CN(C(=O)C(Cl)Cl)c1ccc(OC(=O)c2ccco2)cc1 [Diloxanide furoate] | 0.871 |
| Nc1nc2ccc(OC(F)(F)F)cc2s1 [Riluzole hydrochloride] | 1.23 |
| COc1ccc2c(c1)c(CC(=O)O)c(C)n2C(=O)c1ccc(Cl)cc1 [Indomethacin] | 0.74 |
| O=C(C1CCCCC1)N1CC(=O)N2CCc3ccccc3C2C1 (configuration not stated) [Praziquantel] | 1.17 |
| C(=C\c1ccccc1)/CN1CCN(C(c2ccccc2)c2ccccc2)CC1 [Cinnarizine] | 0.801 |
| CCOC(=O)O[C@]1(C(=O)COC(=O)CC)CC[C@H]2[C@@H]3CCC4=CC(=O)C=C[C@]4(C)[C@H]3[C@@H](O)C[C@@]21C [Prednicarbate] | 0.747 |
| COc1ccc2c(c1OC)C(=O)O[C@@H]2[C@H]1c2c(cc3c(c2OC)OCO3)CCN1C [Noscapine] | 1.13 |
| C=C1c2c(Cl)ccc(O)c2C(=O)C2=C(O)[C@]3(O)C(=O)C(C(N)=O)=C(O)[C@@H](N(C)C)[C@@H]3[C@@H](O)[C@H]12.O=C(O)c1cc(S(=O)(=O)O)ccc1O [Meclocycline sulfosalicylate] | 0.97 |
| CC(C)(C)NCC(O)COc1cccc2c1CCC(=O)N2 (configuration not stated) [Carteolol hydrochloride] | 1.2 |
| COc1ccc([C@@H]2CC(=O)c3c(O)cc(O[C@@H]4O[C@H](CO[C@@H]5O[C@@H](C)[C@H](O)[C@@H](O)[C@H]5O)[C@@H](O)[C@H](O)[C@H]4O)cc3O2)cc1O [Hesperidin] | 0.718 |
| C[N+]1(C)C[C@H](O)C[C@H]1C(=O)[O-] [Betonicine] | 0.504 |
| NS(=O)(=O)c1cc(C(=O)O)cc(N2CCCC2)c1Oc1ccccc1 [Piretanide] | 1.31 |
| CN(C)CCCN1c2ccccc2Sc2ccccc21 [Promazine hydrochloride] | 0.707 |
| Cc1cc(C(C)(C)C)c(O)c(C)c1CC1=NCCN1 [Oxymetazoline hydrochloride] | 0.755 |
| CSc1ccc2c(c1)C(N1CCN(C)CC1)Cc1ccccc1S2 (configuration not stated) [Methiothepin maleate] | 0.818 |
| COC(=O)[C@H]1[C@H]2C[C@H]3c4[nH]c5ccccc5c4CCN3C[C@@H]2CC[C@@H]1O [Corynanthine hydrochloride] | 1.14 |
| C[C@]1(OC(=O)/C=C/c2ccccc2)C[C@@H](O)[C@]2(O)C=CO[C@@H](O[C@@H]3O[C@H](CO)[C@@H](O)[C@H](O)[C@H]3O)[C@@H]21 [Harpagoside] | 0.71 |
| Clc1cnccn1 [2-Chloropyrazine] | 0.726 |

Reprinted from the results shown (3 entries):

| Structure (SMILES) | % Pdx1+ Ins1-low |
| --- | --- |
| CCCCc1cc2ccccc2c(OCCN(C)C)n1 [Dimethisoquin hydrochloride] | 1.16 |
| COc1cc([S+](C)[O-])ccc1-c1nc2cccnc2[nH]1 (configuration not stated) [Sulmazole] | 0.969 |
| C[C@H]1O[C@@H](O[C@H]2[C@@H](O)C[C@H](O[C@H]3[C@@H](O)C[C@H](O[C@H]4CC[C@@]5(C)[C@H](CC[C@@H]6[C@@H]5C[C@@H](O)[C@]5(C)[C@@H](C7=CC(=O)OC7)CC[C@]65O)C4)O[C@@H]3C)O[C@@H]2C)C[C@H](O)[C@@H]1O [Digoxin] | 0.943 |
